In PubChem BioAssay AID328 (DTP/NCI, 2004):
The list shows only some results of the screen, not a fair sample: it gathers tests that were run many times, whatever their T/C, doses with no T/C, and many T/C values between a quarter and a half above the control. Further doses and runs are listed elsewhere. T/C is the treated group as % of the vehicle group. Some doses have a count of surviving animals in place of a T/C: the source files T/C as zero there, which appears to mark a toxic dose or a test without result, not a measured value. Some survivor counts are full or nearly so, which does not show that the dose was tolerated: the source hardly ever lists a survival T/C far under the control, and the zero likely stands for such cases as well. Survivors were counted at the toxicity check, usually on the fifth day, unless a day is given; later deaths do not show. Schedules are NCI's codes, taken here to give the interval after Q, in days (D) or hours (H), and the number of doses after X. Some entries hold several experiments; the results are listed from low to high. Where survival is the endpoint, this PubChem deposit counts one and a half times the control or more as active, and values a quarter to a half above the control carry no call in these data; other NCI protocols may use other cut-offs. Some T/C values are followed by the survivors on the day toxicity was checked, most often the fifth; where none is given, no animal had died by that day. Additions like (4×) count equal records among those shown.

System: BDF1 mice, P388 leukemia ip, median survival T/C
Assay: NCI In Vivo Anticancer Drug Screen. Data for tumor model P388 Leukemia (intraperitoneal) in B6D2F1 (BDF1) mice
Settings: T/C endpoint: median survival time, higher T/C = longer survival
Method in brief: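 Vehicle-dosed animals serve as the reference; survival of compound-dosed, tumour-implanted mice is divided by it.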

[1] = dose: 25.0 mg/kg/injection, schedule: Q01DX005 (ip), vehicle: Klucel (hydroxypropylcellulose) (HPC)
[2] = dose: 25.0 mg/kg/injection, schedule: Q01DX009 (ip), vehicle: Klucel (hydroxypropylcellulose) (HPC)
[3] = dose: 50.0 mg/kg/injection, schedule: Q01DX001 (ip), vehicle: Klucel (hydroxypropylcellulose) (HPC)
[4] = dose: 50.0 mg/kg/injection, schedule: Q01DX005 (ip), vehicle: Klucel (hydroxypropylcellulose) (HPC)
[5] = dose: 50.0 mg/kg/injection, schedule: Q01DX009 (ip), vehicle: Klucel (hydroxypropylcellulose) (HPC)
[6] = dose: 50.0 mg/kg/injection, schedule: Q04DX002 (ip), vehicle: Klucel (hydroxypropylcellulose) (HPC)
[7] = dose: 50.0 mg/kg/injection, schedule: Q04DX003 (ip), vehicle: Klucel (hydroxypropylcellulose) (HPC)
[8] = dose: 100.0 mg/kg/injection, schedule: Q01DX001 (ip), vehicle: Klucel (hydroxypropylcellulose) (HPC)
[9] = dose: 100.0 mg/kg/injection, schedule: Q01DX005 (ip), vehicle: Klucel (hydroxypropylcellulose) (HPC)
[10] = dose: 100.0 mg/kg/injection, schedule: Q04DX003 (ip), vehicle: Klucel (hydroxypropylcellulose) (HPC)
[11] = dose: 200.0 mg/kg/injection, schedule: Q01DX001 (ip), vehicle: Klucel (hydroxypropylcellulose) (HPC)
[12] = dose: 200.0 mg/kg/injection, schedule: Q01DX005 (ip), vehicle: Klucel (hydroxypropylcellulose) (HPC)
[13] = dose: 200.0 mg/kg/injection, schedule: Q01DX009 (ip), vehicle: Klucel (hydroxypropylcellulose) (HPC)
[14] = dose: 200.0 mg/kg/injection, schedule: Q04DX003 (ip), vehicle: Klucel (hydroxypropylcellulose) (HPC)
[15] = dose: 400.0 mg/kg/injection, schedule: Q01DX001 (ip), vehicle: Klucel (hydroxypropylcellulose) (HPC)
[16] = dose: 400.0 mg/kg/injection, schedule: Q04DX002 (ip), vehicle: Klucel (hydroxypropylcellulose) (HPC)
[17] = dose: 400.0 mg/kg/injection, schedule: Q04DX003 (ip), vehicle: Klucel (hydroxypropylcellulose) (HPC)

## CN(C)c1nc(N(C)C)nc(N(C)C)n1
[1]
  T/C: 90, 92, 93, 98 (2×), 99 (3×), 100 (4×), 101 (2×), 102, 103 (3×), 104 (2×), 105, 106, 107, 108 (2×), 109 (2×), 111 (2×), 112, 113, 116, 120, 150 % of control
  survivor count: 2 of 3
[2]
  T/C: 90, 92, 94 (3×), 95 (2×), 97 (3×), 100 (2×), 101 (2×), 103 (2×), 104, 106 (2×), 107 (2×), 109, 109 [5 of 6 alive], 110, 111 (2×), 113 (2×), 115, 125, 128 % of control
  survivor count: 3 of 3
[3]
  T/C: 87, 88, 93, 94, 100 (4×), 102 (2×), 103, 104 (3×), 105, 105 [2 of 3 alive], 106, 107 (4×), 109, 110, 114, 115, 117, 128 % of control
  survivor count: 5 of 6
[4]
  T/C: 90, 94, 97, 99, 100 (2×), 102 (2×), 104, 105, 106 (2×), 107 (5×), 108 (4×), 109, 110, 111, 112, 114, 115, 117 (2×), 119 (2×), 120, 123, 131 % of control
  survivor count: 3 of 3
[5]
  T/C: 87, 88, 90 (2×), 92, 94 (3×), 95, 97 (2×), 100, 101, 103 (4×), 104 (2×), 105, 106, 108, 109, 110 (2×), 111 (3×), 112, 113, 118, 123, 129, 150 % of control
  survivor count: 3 of 3 and 6 of 6
[6]
  T/C: 86, 88, 89 (2×), 91, 94, 95, 99 (2×), 100 (3×), 101, 103 (2×), 104 (2×), 106 (4×), 107 (3×), 109 (2×), 111, 113, 114, 117, 121 [5 of 6 alive], 122 % of control
  survivor count: 3 of 3
[7]
  T/C: 87, 94, 97, 98, 100 (5×), 101 (2×), 102 (3×), 105 (6×), 106, 107 (2×), 108 (3×), 110 (2×), 111 (2×), 115, 116 % of control (2×)
  survivor count: 2 of 3 and 3 of 3
[8]
  T/C: 87, 91, 92, 94, 95, 96 (2×), 98, 99 (2×), 100, 101, 102, 103, 104, 105 (2×), 106 (2×), 106 [5 of 6 alive], 109, 110, 111, 113, 116, 126 % of control
  survivor count: 6 of 6
[9]
  T/C: 90, 93, 99, 100, 101, 103 [5 of 6 alive], 105 (2×), 107 (3×), 107 [2 of 3 alive], 108, 111 (2×), 113, 115 (3×), 117 (2×), 117 [5 of 6 alive], 119, 124, 126, 127, 128 (2×), 131, 133, 137, 138, 144 % of control (2×)
  survivor count: 1 of 3
dose: 100.0 mg/kg/injection, schedule: Q01DX009 (ip), vehicle: Klucel (hydroxypropylcellulose) (HPC)
  T/C: 87, 90, 93, 97, 97 [2 of 3 alive], 101, 102 (2×), 103 (2×), 104, 106 (2×), 107 (2×), 108, 109, 110, 111 (3×), 113, 113 [5 of 6 alive], 115, 119, 120, 122 (2×), 125, 126, 127, 130 (2×), 131 (2×), 143 % of control
dose: 100.0 mg/kg/injection, schedule: Q04DX002 (ip), vehicle: Klucel (hydroxypropylcellulose) (HPC)
  T/C: 88, 90, 92 (2×), 94, 97, 98, 100, 101, 102, 103 (4×), 104 (2×), 105 (3×), 106 (3×), 109 (5×), 111 (2×), 117 (2×), 120 (2×), 125 % of control
[10]
  T/C: 86, 87 (2×), 93, 96 (2×), 99, 102 (2×), 103, 104 (2×), 105 (4×), 106, 107 (4×), 109 (2×), 110, 111 (3×), 112 (2×), 115, 116, 117, 123, 133, 151 % of control
  survivor count: 2 of 3
dose: 160.0 mg/kg/injection, schedule: Q01DX009 (ip), vehicle: saline with Tween-80
  survivor count: 10 of 10
[11]
  T/C: 90, 94 (2×), 95, 99, 100, 104 (2×), 105 (3×), 106 (4×), 107 (2×), 108, 111 (2×), 113, 117, 118, 121 (2×), 123, 130 % of control
  survivor count: 2 of 3
[12]
  T/C: 93, 94 [5 of 6 alive], 96, 100 [5 of 6 alive], 103, 106, 116, 121, 123, 124, 125, 126, 133, 139 % of control
  survivor count: 3 of 6, 2 of 3, 5 of 6, 3 of 3, 6 of 6
[13]
  T/C: 87 [5 of 6 alive], 92 (2×), 93, 97, 100, 108 (2×), 109 (2×), 112, 113, 114, 121, 128 % of control
  survivor count: 1 of 3, 3 of 6, 2 of 3, 4 of 6, 5 of 6, 3 of 3, 6 of 6
dose: 200.0 mg/kg/injection, schedule: Q04DX002 (ip), vehicle: Klucel (hydroxypropylcellulose) (HPC)
  T/C: 87, 91, 95, 100, 103 (3×), 104, 105, 108 (2×), 109, 111 (4×), 112 (4×), 115 (2×), 117, 118 (2×), 120, 121, 123, 128, 132, 134 (3×), 137 % of control
[14]
  T/C: 87, 91, 94, 96, 100, 102, 104 (2×), 105, 109, 110 (2×), 112 (2×), 113, 114 (3×), 114 [2 of 3 alive], 115, 117 (2×), 118, 119, 121 (2×), 122, 123 (2×), 125 (2×), 126, 127, 134, 140 % of control
  survivor count: 3 of 3
dose: 300.0 mg/kg/injection, schedule: Q01DX009 (ip), vehicle: Klucel (hydroxypropylcellulose) (HPC)
  survivor count: 6 of 6
dose: 300.0 mg/kg/injection, schedule: Q01DX009 (ip), vehicle: saline with Tween-80
  survivor count: 9 of 10
[15]
  T/C: 91, 93, 95, 96, 100 [5 of 6 alive], 104, 105, 106 (2×), 108, 109, 110 (2×), 111, 113, 114, 116 [2 of 3 alive], 126 [5 of 6 alive], 129 % of control [2 of 3 alive]
  survivor count: 0 of 3, 1 of 3, 3 of 6, 5 of 6, 6 of 6
dose: 400.0 mg/kg/injection, schedule: Q01DX009 (ip), vehicle: Klucel (hydroxypropylcellulose) (HPC)
  survivor count: 5 of 6
[16]
  T/C: 90 [5 of 6 alive], 97 [5 of 6 alive], 100, 102 (2×), 105, 109, 112, 141, 143 % of control (2×)
  survivor count: 0 of 3, 1 of 6, 1 of 3, 2 of 6, 3 of 6, 2 of 3, 4 of 6, 3 of 3, 6 of 6
[17]
  T/C: 88, 94, 100 [5 of 6 alive], 102, 104, 107, 108, 127, 135, 220 % of control
  survivor count: 1 of 6, 1 of 3, 2 of 3, 4 of 6, 5 of 6, 3 of 3, 6 of 6
dose: 450.0 mg/kg/injection, schedule: Q01DX009 (ip), vehicle: saline with Tween-80
  survivor count: 4 of 10
